Source: PMC6971018
No constants are given. Whether binding was seen depends on the method and setting. Binding can be weak; no strength is given.

Tests used:
[1] = target: T1, CutC choline lyase, full length (Klebsiella pneumoniae) (UniProt A6TB41); test: SEC; proteins co-expressed in E. coli BL21-DE3; cleared lysate pelleted at 50,000g for 3 h, pellet gel-filtered on Superose 6 16/900 in 300 mM NaCl, 20 mM Tris-HCl pH 8.0; fractions 60-120 ml by SDS-PAGE and TEM
T1 sequence: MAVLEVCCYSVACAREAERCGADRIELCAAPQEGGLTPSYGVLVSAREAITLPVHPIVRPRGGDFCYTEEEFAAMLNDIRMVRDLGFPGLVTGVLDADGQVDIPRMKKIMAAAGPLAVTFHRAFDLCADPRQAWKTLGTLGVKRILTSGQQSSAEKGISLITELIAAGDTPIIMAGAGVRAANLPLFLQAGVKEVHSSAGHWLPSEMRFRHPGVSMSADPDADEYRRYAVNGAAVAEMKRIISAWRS

[2] = target: T1, CutC choline lyase, full length (Klebsiella pneumoniae); test: SEC; purified His6x-tagged core enzymes, alone and together, on the Superose 6 column; both purified

binding [1]	binding [2]	Substance
binds		CutF aldehyde dehydrogenase, co-expressed with shell genes (Klebsiella pneumoniae) (enzyme)
	binds	His6x-CutF, purified (Klebsiella pneumoniae) (enzyme)
